Record: PubChem BioAssay AID504784 (Drosophila RNAi Screening Center, 2011)
Purpose: 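Genome-wide knock-down for genes giving too much or too little stored lipid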 (primary screen). Cell system: Drosophila Kc167 embryonic cells. Knock-down reagent: long dsRNA against Drosophila genes, about 250 ng dsRNA per well. Time to read-out: 4 days. Challenge: cells fed 400 µM oleic acid bound to BSA. Measured: 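Cells imaged and segmented; ratio of lipid droplet area to nuclear area, log-transformed, then normalised as a B-score over the screen; higher means more stored lipid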. Scale: droplet/nuclear area B-score: higher = more stored lipid (overstorage).
The screen tested about 17,000 reagents; below is an unselected part of those that have a named target and a result. 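Each column is one replicate's B-score; the combined score over replicates was not deposited, so single values may mislead.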 A plus sign joins genes that one reagent is predicted to hit.

The first 7 entries as a preview:
| predicted target | dsRNA | droplet/nuclear area B-score, replicate 1 | droplet/nuclear area B-score, replicate 2 | droplet/nuclear area B-score, replicate 3 |
| --- | --- | --- | --- | --- |
| CG31559 | DRSC12172 | 1.78 | 0.747 | – |
| CG31559 | DRSC12270 | -0.512 | 0.0937 | – |
| CG13544 | DRSC04186 | -0.00988 | 0.633 | – |
| toy | DRSC17222 | -1.42 | 1.36 | – |
| hng1 | DRSC04555 | -0.94 | -1.73 | – |
| trus | DRSC15772 | -0.00634 | 1.32 | – |
| Sirup | DRSC03031 | 1.15 | -1.1 | – |

The list itself, repeating the preview:
| predicted target | dsRNA | droplet/nuclear area B-score, replicate 1 | droplet/nuclear area B-score, replicate 2 | droplet/nuclear area B-score, replicate 3 |
| --- | --- | --- | --- | --- |
| CG31559 | DRSC12172 | 1.78 | 0.747 | – |
| CG31559 | DRSC12270 | -0.512 | 0.0937 | – |
| CG13544 | DRSC04186 | -0.00988 | 0.633 | – |
| toy | DRSC17222 | -1.42 | 1.36 | – |
| hng1 | DRSC04555 | -0.94 | -1.73 | – |
| trus | DRSC15772 | -0.00634 | 1.32 | – |
| Sirup | DRSC03031 | 1.15 | -1.1 | – |
| CG32206 | DRSC09602 | 0.22 | -0.0612 | – |
| CG32206 | DRSC10094 | -2.45 | -0.723 | – |
| CG32206 | DRSC10095 | -0.691 | -1.1 | – |
| CG32206 | DRSC10096 | -0.412 | -0.66 | – |
| CG32206 | DRSC11080 | 0.336 | 1.57 | – |
| mab-21 | DRSC18791 | -1.24 | 0.116 | – |
| rtv | DRSC19541 | -0.286 | 0.0537 | 0.424 |
| Zpr1 | DRSC18432 | -0.963 | 0.291 | 3.16 |
| TpnC73F | DRSC11307 | -2.39 | -1.41 | – |
| Marc | DRSC06614 | 0.83 | -1.09 | – |
| CG30265 | DRSC21592 | -0.0532 | 1.92 | – |
| AANATL5 | DRSC05994 | 1.82 | – | – |
| Eb1 | DRSC05016 | -0.63 | 1.04 | – |
| CG42673 | DRSC08989 | -1.29 | -1.19 | – |
| CG42673 | DRSC08991 | -1.37 | -0.765 | – |
| CG42673 | DRSC10177 | -0.512 | -0.0152 | – |
| CG42673 | DRSC10264 | -0.0465 | 0.778 | – |
| CG42673 | DRSC10353 | -0.711 | -2.29 | – |
| CG42673 | DRSC10354 | 0.148 | 1.02 | – |
| Fkbp12 | DRSC07425 | 0.0184 | -0.888 | – |
| CG31741 | DRSC02887 | 2.26 | 0.533 | – |
| CG16978 | DRSC02553 | -0.742 | 1.34 | – |
| RpLP1 | DRSC00783 | 2.99 | 4.25 | – |
| RpLP1 | DRSC22145 | 0.49 | 4.65 | – |
| ATP8A | DRSC05421 | 0.431 | 1.02 | – |
| ATP8A | DRSC06643 | 0.722 | 0.837 | – |
| ATP8A | DRSC06644 | -2.42 | -0.587 | – |
| Cluap1 | DRSC20637 | 1.88 | 0.0755 | – |
| CG12224 | DRSC14480 | 0.598 | -1.06 | – |
| Sry-delta | DRSC16869 | 0.943 | – | – |
| CG13613 | DRSC14616 | -1.65 | 0.193 | – |
| CG32647 | DRSC19690 | -0.218 | 0.152 | -0.913 |
| CG32647 | DRSC19878 | -0.867 | 0.948 | 0.186 |
| serp | DRSC11035 | -1.09 | 0.142 | – |
| serp | DRSC11036 | -0.638 | -0.592 | – |
| snoRNA:U31:54Ec + snoRNA:snR38:54Eb + snoRNA:U27:54Eb + 8 more | DRSC06458 | 0.0661 | 0.323 | – |
| CG33331 + CG33332 | DRSC22928 | -0.0733 | -0.945 | – |
| Lcp65Ag3 | DRSC10345 | -0.256 | 0.212 | 0.0338 |
| Mcr | DRSC03366 | -0.02 | 0.644 | – |
| CCHa1 | DRSC14821 | -2.22 | -0.973 | – |
| Sil1 | DRSC14242 | -1.29 | -0.917 | – |
| nmdyn-D7 | DRSC17016 | 0.844 | -0.322 | – |
| Akr1B | DRSC10581 | -0.595 | -0.406 | – |
| CG12620 | DRSC02177 | -1.35 | -1.32 | – |
| CG12766 | DRSC08295 | -0.582 | 0.0787 | – |
| Atg13 | DRSC16228 | -0.0478 | 0.0259 | – |
| Kr-h1 | DRSC00908 | -2.42 | -3.55 | – |
| Kr-h1 | DRSC03355 | -1.59 | -1.35 | – |
| CG42355 | DRSC07967 | -0.158 | 2.38 | – |
| CG10958 | DRSC17768 | -0.756 | 0.0799 | -0.392 |
| Tango9 | DRSC14173 | -0.163 | 0.0108 | – |
| Bin1 | DRSC16843 | -0.0913 | -0.132 | – |
| Schip1 | DRSC02851 | 1.47 | 2.46 | – |
| nAChRalpha7 | DRSC20078 | -0.662 | 5.22 | – |
| nAChRalpha7 | DRSC20081 | 1.57 | 0.165 | – |
| RanGAP | DRSC22003 | -0.0793 | 1.76 | – |
| CG9760 | DRSC11101 | -0.0199 | 0.155 | – |
| CG11836 | DRSC14396 | 0.57 | -0.669 | – |
| glob2 | DRSC12560 | 0.677 | -0.0669 | – |
| Sem1 | DRSC02282 | 2.05 | 1.6 | – |
| Osi4 | DRSC12134 | -0.65 | 0.0354 | – |
| Agxt | DRSC18718 | 0.0461 | -0.0214 | -0.965 |
| CG7049 | DRSC08587 | 0.206 | 0.749 | – |
| Burs | DRSC14595 | 0.632 | 0.116 | – |
| spri | DRSC17846 | -0.0467 | -0.237 | 1.22 |
| spri | DRSC17984 | 0.645 | 0.013 | 0.35 |
| spri | DRSC17985 | 1.09 | -0.37 | 0.367 |
| spri | DRSC17986 | -0.084 | -0.013 | -0.406 |
| spri | DRSC17988 | -1.13 | -2.49 | -0.833 |
| spri | DRSC17989 | -0.172 | -0.345 | 0.552 |
| spri | DRSC22927 | 0.263 | 0.0804 | – |
| Hnf4 | DRSC03344 | 1.12 | 2.85 | – |
| Dlic | DRSC19824 | 1.42 | -0.223 | -0.737 |
| CG8745 | DRSC11033 | 0.557 | 1.71 | 0.371 |
| CG8745 | DRSC11034 | 0.33 | -0.437 | – |
| CG8745 | DRSC22741 | 0.856 | -0.536 | – |
| Apl | DRSC10350 | 2.54 | 0.771 | – |
| CG31827 + CG18478 | DRSC01958 | -0.593 | -1.66 | – |
| obst-I | DRSC08339 | -2.14 | 2.96 | – |
| CG14427 | DRSC17921 | 0.205 | 0.0469 | – |
| Wdr24 | DRSC14151 | 1.19 | -0.688 | – |
| eIF3f2 | DRSC04903 | 1.24 | -1.66 | – |
| aurB | DRSC03548 | 0.639 | – | – |
| aurB | DRSC23324 | – | 0.0376 | – |
| Ube4A | DRSC02004 | -0.275 | -2.12 | – |
| Kr-h2 | DRSC03356 | 2.77 | 0.0183 | – |
| Ser7 | DRSC18201 | 0.0205 | -0.3 | 0.572 |
| mil | DRSC15696 | -0.877 | 0.0753 | – |
| CG9922 | DRSC16579 | 1.27 | 0.872 | – |
| CG14143 | DRSC10146 | 0.962 | 1.53 | – |
| Arfrp1 | DRSC18417 | 3.64 | 2.61 | 1.91 |
| Ir76b | DRSC10831 | 0.0281 | -0.271 | – |
| ced-6 | DRSC07591 | 0 | 0.478 | 0.61 |
| CG1632 | DRSC17558 | 0.841 | 0.747 | – |
| CG1632 | DRSC18110 | -0.0657 | 0.567 | – |
| RpL35 | DRSC18347 | 2.59 | -1.35 | – |
| sprt | DRSC07323 | 0.854 | -0.124 | – |
| psd | DRSC03131 | 1.03 | -2.82 | – |
